# ChEMBL document CHEMBL1949578, “Inhibitors of acetyltransferase domain of N-acetylglucosamine-1-phosphate-uridyltransferase/glucosamine-1-phosphate-acetyltransferase (GlmU). Part 1: Hit to lead evaluation of a novel arylsulfonamide series” (Bioorg Med Chem Lett, 2012)
# Test: Aqueous solubility of the compound
# Settings: buffer
compound,measurement,value
COc1cc(OC)c(S(=O)(=O)N2c3ccccc3CC2C)cc1NC(C)=O (stereo unspecified),solubility,15 µM
